# Experimental data: paper doi:10.1101/2020.03.27.011528
# Amino acid sequences for entries named in this document (tags omitted). Residues count along the entry.
# UniProt P38646, residues 47-679: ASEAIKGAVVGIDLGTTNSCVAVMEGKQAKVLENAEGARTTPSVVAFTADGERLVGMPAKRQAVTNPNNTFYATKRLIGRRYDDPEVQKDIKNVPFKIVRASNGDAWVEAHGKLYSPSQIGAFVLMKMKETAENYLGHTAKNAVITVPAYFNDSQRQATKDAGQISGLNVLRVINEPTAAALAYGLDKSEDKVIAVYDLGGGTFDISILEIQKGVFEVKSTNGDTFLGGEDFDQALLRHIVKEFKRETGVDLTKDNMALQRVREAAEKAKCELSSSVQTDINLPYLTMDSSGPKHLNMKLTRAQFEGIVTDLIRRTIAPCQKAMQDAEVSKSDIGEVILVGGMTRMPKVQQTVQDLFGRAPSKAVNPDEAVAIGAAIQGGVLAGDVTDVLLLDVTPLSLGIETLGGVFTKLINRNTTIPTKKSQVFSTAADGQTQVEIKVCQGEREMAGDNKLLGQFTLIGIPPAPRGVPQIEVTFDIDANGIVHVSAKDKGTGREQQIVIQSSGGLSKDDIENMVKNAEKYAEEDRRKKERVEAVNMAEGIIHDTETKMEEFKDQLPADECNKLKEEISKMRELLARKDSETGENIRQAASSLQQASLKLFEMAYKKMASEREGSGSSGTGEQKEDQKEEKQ
# UniProt P21796: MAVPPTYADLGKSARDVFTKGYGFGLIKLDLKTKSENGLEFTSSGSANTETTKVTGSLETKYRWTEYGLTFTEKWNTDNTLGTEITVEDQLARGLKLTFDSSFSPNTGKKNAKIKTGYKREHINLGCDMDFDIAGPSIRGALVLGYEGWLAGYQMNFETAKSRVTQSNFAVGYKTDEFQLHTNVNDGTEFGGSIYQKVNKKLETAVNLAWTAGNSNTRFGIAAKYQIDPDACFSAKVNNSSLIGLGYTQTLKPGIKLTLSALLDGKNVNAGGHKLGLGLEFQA
# These are yes or no findings as the source states them, for the method shown. Binding seen in cells or lysates may run through a third protein. Some binding calls cover weakened binding; strength is not graded here.
# Target: glucose regulated protein 75 (GRP75) (human (endogenous in SH-SY5Y)) (UniProt P38646)
# Experiment: proximity ligation
substance,measurement,value
voltage-dependent anionic channel 1 (VDAC1) (from UniProt P21796 1-283),binding,binds
